Laboratory results reported in publication PMC9516332 (Frontiers in Oncology, 2022).
pIC50: −log10 of the molar value. Like-named read-outs stand apart in the source and are kept apart here.

System: 134 cancer cell lines
Experiment: Cell viability assay (ATPlite, 72 hours), IC50 on cancer cell line panel

## COc1cc(OC)cc(N(CCNC(C)C)c2ccc3ncc(-c4cnn(C)c4)nc3c2)c1 [erdafitinib]
HEC-6, read-out: IC50 in cell proliferation assay
  pIC50: 5.29
Homo sapiens, 769-P, read-out: IC50 in cell proliferation assay
  pIC50: 5.46
Homo sapiens, 786-0, read-out: IC50 in cell proliferation assay
  pIC50: 5.29
Homo sapiens, A 172, read-out: IC50 in cell proliferation assay
  pIC50: 7.89
Homo sapiens, A498, read-out: IC50 in cell proliferation assay
  pIC50: 5.50
Homo sapiens, A549, read-out: IC50 in cell proliferation assay
  pIC50: 6.02
Homo sapiens, A704, read-out: IC50 in cell proliferation assay
  pIC50: 5.23
Homo sapiens, A-375, read-out: IC50 in cell proliferation assay
  pIC50: 5.50
Homo sapiens, A-427, read-out: IC50 in cell proliferation assay
  pIC50: 6.96
Homo sapiens, ACHN, read-out: IC50 in cell proliferation assay
  pIC50: 5.62
Homo sapiens, AN3-CA, read-out: IC50 in cell proliferation assay
  pIC50: 7.64
Homo sapiens, ASPC1, read-out: IC50 in cell proliferation assay
  pIC50: 4.97
Homo sapiens, AU565, read-out: IC50 in cell proliferation assay
  pIC50: 5.07
Homo sapiens, BT-20, read-out: IC50 in cell proliferation assay
  pIC50: 5.18
Homo sapiens, BT-474, read-out: IC50 in cell proliferation assay
  pIC50: 5.08
Homo sapiens, BT-549, read-out: IC50 in cell proliferation assay
  pIC50: 5.53
Homo sapiens, BXPC-3, read-out: IC50 in cell proliferation assay
  pIC50: 5.34
Homo sapiens, C-33-A, read-out: IC50 in cell proliferation assay
  pIC50: 5.37
Homo sapiens, CAL-27, read-out: IC50 in cell proliferation assay
  pIC50: 5.41
Homo sapiens, CCF-STTG1, read-out: IC50 in cell proliferation assay
  pIC50: 4.94
Homo sapiens, CCRF-CEM, read-out: IC50 in cell proliferation assay
  pIC50: 5.27
Homo sapiens, COLO 205, read-out: IC50 in cell proliferation assay
  pIC50: 5.18
Homo sapiens, COLO-829, read-out: IC50 in cell proliferation assay
  pIC50: 5.06
Homo sapiens, DLD-1, read-out: IC50 in cell proliferation assay
  pIC50: 5.29
Homo sapiens, DU-145, read-out: IC50 in cell proliferation assay
  pIC50: 5.32
Homo sapiens, DU-4475, read-out: IC50 in cell proliferation assay
  pIC50: 4.85
Homo sapiens, Daoy, read-out: IC50 in cell proliferation assay
  pIC50: 5.22
Homo sapiens, DoTc2-4510, read-out: IC50 in cell proliferation assay
  pIC50: 5.42
Homo sapiens, EOL1, read-out: IC50 in cell proliferation assay
  pIC50: 7.85
Homo sapiens, FaDu, read-out: IC50 in cell proliferation assay
  pIC50: 5.31
Homo sapiens, G-361, read-out: IC50 in cell proliferation assay
  pIC50: 5.35
Homo sapiens, HCC4006, read-out: IC50 in cell proliferation assay
  pIC50: 5.20
Homo sapiens, HCT-15, read-out: IC50 in cell proliferation assay
  pIC50: 5.26
Homo sapiens, HCT-116, read-out: IC50 in cell proliferation assay
  pIC50: 5.32
Homo sapiens, HEC-1, read-out: IC50 in cell proliferation assay
  pIC50: 5.49
Homo sapiens, HEC-1B, read-out: IC50 in cell proliferation assay
  pIC50: 5.38
Homo sapiens, HL-60, read-out: IC50 in cell proliferation assay
  pIC50: 5.30
Homo sapiens, HT, read-out: IC50 in cell proliferation assay
  pIC50: 4.91
Homo sapiens, HT-1080, read-out: IC50 in cell proliferation assay
  pIC50: 5.60
Homo sapiens, Hs746T, read-out: IC50 in cell proliferation assay
  pIC50: 5.40
Homo sapiens, Hs-578T, read-out: IC50 in cell proliferation assay
  pIC50: 5.66
Homo sapiens, J82, read-out: IC50 in cell proliferation assay
  pIC50: 5.26
Homo sapiens, Jurkat E6.1, read-out: IC50 in cell proliferation assay
  pIC50: 5.43
Homo sapiens, K562, read-out: IC50 in cell proliferation assay
  pIC50: 5.82
Homo sapiens, KATO III, read-out: IC50 in cell proliferation assay
  pIC50: 8.64
Homo sapiens, KG-1, read-out: IC50 in cell proliferation assay
  pIC50: 8.52
Homo sapiens, KLE, read-out: IC50 in cell proliferation assay
  pIC50: 5.31
Homo sapiens, KMS-11, read-out: IC50 in cell proliferation assay
  pIC50: 7.89
Homo sapiens, KU812, read-out: IC50 in cell proliferation assay
  pIC50: 6.35
Homo sapiens, Kasumi 1, read-out: IC50 in cell proliferation assay
  pIC50: 6.85
Homo sapiens, LC-2-ad, read-out: IC50 in cell proliferation assay
  pIC50: 7.15
Homo sapiens, LNCaP-Clone-FGC, read-out: IC50 in cell proliferation assay
  pIC50: 4.95
Homo sapiens, LS174T, read-out: IC50 in cell proliferation assay
  pIC50: 5.00
Homo sapiens, LS-411N, read-out: IC50 in cell proliferation assay
  pIC50: 4.97
Homo sapiens, LoVo, read-out: IC50 in cell proliferation assay
  pIC50: 5.40
Homo sapiens, MCF7, read-out: IC50 in cell proliferation assay
  pIC50: 4.76
Homo sapiens, MDA-MB-231, read-out: IC50 in cell proliferation assay
  pIC50: 5.17
Homo sapiens, MDA-MB-453, read-out: IC50 in cell proliferation assay
  pIC50: 4.94
Homo sapiens, MDA-MB-468, read-out: IC50 in cell proliferation assay
  pIC50: 5.74
Homo sapiens, MG-63, read-out: IC50 in cell proliferation assay
  pIC50: 5.62
Homo sapiens, MIA PaCa-2, read-out: IC50 in cell proliferation assay
  pIC50: 5.15
Homo sapiens, MKN-45, read-out: IC50 in cell proliferation assay
  pIC50: 5.20
